Data on twelve molecules can be found in patent publication US9919941B2, “Multiple uses of amine salts for industrial water treatment” (AMSA, Inc., priority 2012, dated 2018).

The nature of data set [1]: copper corrosion inhibition, ASTM G31-72 coupon weight loss. The protocol:
(§1) Corrosion inhibition studies of various compounds of Formula (I) were conducted according to ASTM method G31-72 (2004). The following is the general test method.
(§2) Aqueous solutions of the test compound (900 mL) were prepared with city water for mild steel corrosion studies or a dilute sea salt solution (1000 ppm in deionized water) for copper corrosion studies. The solutions were magnetically stirred at a constant rate in a 1 L beaker and three coupons of either mild steel or copper were suspended in each beaker. After 5 days (steel) or 7 days (copper), the coupons were removed and cleaned according to ASTM method G1-03. Average weight loss was determined for each set of three coupons and then converted to corrosion rate in terms of mils per year (mpy).
The first test of copper corrosion inhibition compared Compound A with Compound 13 (from Table 1), 2-hydroxypropane-1,2,3-tricarboxylic acid, and a commercial inhibitor, Na-TAI.

Data set [2] is described as follows: mild steel corrosion inhibition, ASTM G31-72 coupon weight loss. As to the method:
as §1, §2
These tests compare the corrosion inhibition of compounds of Formula (I), namely from Table 1, in the first set of comparisons, Compound A with Compound 13, and Compound B with Compound 1, and with 2-hydroxypropane-1,2,3-tricarboxylic acid. Thus five samples were tested relative to a blank and a standard, (1-hydroxyethan-1,1-diyl)bis(phosphonic acid), after 5 days at 26 μM concentrations. […] Concentrations were 26 μM.
Additional mild steel corrosion tests were performed at 130 μM concentration of compounds of Formula (I) and comparative compounds for 5 days. The next test compared the corrosion inhibition of Compound 8 with 2,3-dihydroxybutanedioic acid and Compound B, and Compound 4 with (1-hydroxyethan-1,1-diyl)bis(phosphonic acid) and Compound B. Also included was Compound 1 for reference. Concentrations in this set were 130 μM.

[3] abbreviates: 5 days, 130 μM, Table 4 (blank 24 mpy).
Setting [4] is: 130 μM, Table 5 (blank 12.5 mpy).

In data set [1] (7 days, 17 μM, Table 6), `[Na+].c1ccc2[n-]nnc2c1` [Na-TAI, sodium salt of 1,2,3-triaza-1H-indene] yielded a Corrosion rate of 0.5 mpy.

For `O=C(O)CC(O)(CC(=O)O)C(=O)O` [2-hydroxypropane-1,2,3-tricarboxylic acid], the Corrosion rate in data set [1] (42 μM, Table 7) is recorded as 1.4 mpy; in data set [1] (7 days, 17 μM, Table 6) it was 1.7 mpy; in data set [2] (5 days, 26 μM, Table 3), 22 mpy.

In the case of `O=C(O)C(O)C(O)C(=O)O` (stereo not shown) [2,3-Dihydroxybutanedioic acid], in data set [2] (setting [3]), the Corrosion rate came out at 20 mpy.

Regarding `CCCCCCCCCCSCCN.Cl` [Compound A, 2-(decylthio)ethanamine hydrochloride], the Corrosion rate in data set [1] (7 days, 17 μM, Table 6) is given as 1.0 mpy; in data set [2] (5 days, 26 μM, Table 3) it was 24 mpy.

Turning to “Salt of Oxyamine (II) and Trihydroxidooxidophosphorus salt (1:1 molar stoichiometry) [Compound 3]”, the Corrosion rate in data set [2] (setting [4]) is reported as 5.6 mpy.

`CC(O)(P(=O)(O)O)P(=O)(O)O.CCCCCCCCCCOCCCN` [Compound 4, Salt of Oxyamine (II) and (1-Hydroxyethan-1,1-diyl)bis(phosphonic acid) (1:1 Molar Stoichiometry)] returned a Corrosion rate in data set [2] (setting [3]) of 7.7 mpy.

On to “Salt of Oxyamine (II) and 2,3-Dihydroxybutanedioic acid salt (1:1 molar stoichiometry) [Compound 8]”, for which the Corrosion rate in data set [2] (setting [3]) amounted to 14 mpy.

Regarding `CC(=O)O.CCCCCCCCCCOCCCN` [Compound B, ethanoic acid salt of aminopropyloxydecane], the Corrosion rate was 1.0 mpy in data set [1] (42 μM, Table 7); 12.7 mpy in data set [2] (setting [4]); 24 mpy in data set [2] (5 days, 26 μM, Table 3); 25 mpy in data set [2] (setting [3]).

Regarding `O=C(O)C(=O)O` [Ethanedioic acid], in data set [2] (setting [4]), the Corrosion rate was found to be 14.5 mpy.

Consider `O=P(O)(O)O` [Trihydroxidooxidophosphorus], for which the Corrosion rate in data set [2] (setting [4]) was determined as 7.4 mpy.

For `CCCCCCCCCCOCCCN.O=C(O)CC(O)(CC(=O)O)C(=O)O` [Compound 1, 2-hydroxypropane-1,2,3-tricarboxylic acid salt of aminopropyloxydecane], the Corrosion rate is 0.70 mpy in data set [1] (42 μM, Table 7); 1.6 mpy in data set [2] (setting [4]); 10 mpy in data set [2] (5 days, 26 μM, Table 3); 2.9 mpy in data set [2] (setting [3]).

In the case of `CC(O)(P(=O)(O)O)P(=O)(O)O` [(1-hydroxyethan-1,1-diyl)bis(phosphonic acid)], the Corrosion rate worked out at 16 mpy in data set [2] (5 days, 26 μM, Table 3) and 9.3 mpy in data set [2] (setting [3]).
